Results: the supplement of paper PMC8728848
The other results are listed elsewhere or left out.

Experiments:
Experiment in all cases: glycan array binding signal (z-score within array); higher = stronger binding
Settings in all cases: glycan notation: IUPAC condensed, linker removed
Neu5Ac(a2-3)Gal(b1-4)Glc = target: Neu5Ac(a2-3)Gal(b1-4)Glc
In short: (§1)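 Glycan array data were curated from 3228 arrays in the Consortium for Functional Glycomics database and kept only where the protein sequence was available. Glycan names were converted to IUPAC-condensed notation, and columns mapping to the same glycan were averaged. The binding signal is a within-array Z-score, averaged across arrays of the same protein sequence at different concentrations or buffers and across linkers. Negative Z-scores can be read as non-binding.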

[1] = target: Neu5Ac(a2-3)Gal(b1-4)GlcNAc
In short: as §1

[2] = target: Neu5Ac(a2-3)Gal(b1-4)GlcNAc(b1-2)Man
In short: as §1

[3] = target: Neu5Ac(a2-3)Gal(b1-4)GlcNAc(b1-2)Man(a1-3)[GlcNAc(b1-4)][Neu5Ac(a2-3)Gal(b1-4)GlcNAc(b1-2)Man(a1-6)]Man(b1-4)GlcNAc(b1-4)GlcNAc
In short: as §1

[4] = target: Neu5Ac(a2-3)Gal(b1-4)GlcNAc(b1-2)Man(a1-3)[Neu5Ac(a2-3)Gal(b1-4)GlcNAc(b1-2)Man(a1-6)]Man(b1-4)GlcNAc(b1-4)GlcNAc
In short: as §1

[5] = target: Neu5Ac(a2-3)Gal(b1-4)GlcNAc(b1-2)Man(a1-3)[Neu5Ac(a2-3)Gal(b1-4)GlcNAc(b1-2)Man(a1-6)]Man(b1-4)GlcNAc(b1-4)[Fuc(a1-6)]GlcNAc
In short: as §1

[6] = target: Neu5Ac(a2-3)Gal(b1-4)GlcNAc(b1-2)Man(a1-3)[Neu5Ac(a2-6)Gal(b1-4)GlcNAc(b1-2)Man(a1-6)]Man(b1-4)GlcNAc(b1-4)GlcNAc
In short: as §1

[7] = target: Neu5Ac(a2-3)Gal(b1-4)GlcNAc(b1-2)[Neu5Ac(a2-3)Gal(b1-4)GlcNAc(b1-4)]Man(a1-3)[GlcNAc(b1-4)][Neu5Ac(a2-3)Gal(b1-4)GlcNAc(b1-2)[Neu5Ac(a2-3)Gal(b1-4)GlcNAc(b1-6)]Man(a1-6)]Man(b1-4)GlcNAc(b1-4)GlcNAc
In short: as §1

[8] = target: Neu5Ac(a2-3)Gal(b1-4)GlcNAc(b1-2)[Neu5Ac(a2-3)Gal(b1-4)GlcNAc(b1-4)]Man(a1-3)[GlcNAc(b1-4)][Neu5Ac(a2-3)Gal(b1-4)GlcNAc(b1-4)Man(a1-6)]Man(b1-4)GlcNAc(b1-4)GlcNAc
In short: as §1

[9] = target: Neu5Ac(a2-3)Gal(b1-4)GlcNAc(b1-2)[Neu5Ac(a2-3)Gal(b1-4)GlcNAc(b1-6)]Man(a1-6)[Neu5Ac(a2-3)Gal(b1-4)GlcNAc(b1-2)Man(a1-3)]Man(b1-4)GlcNAc(b1-4)GlcNAc
In short: as §1

[10] = target: Neu5Ac(a2-3)Gal(b1-4)GlcNAc(b1-2)[Neu5Ac(a2-3)Gal(b1-4)GlcNAc(b1-6)]Man(a1-6)[Neu5Ac(a2-3)Gal(b1-4)GlcNAc(b1-2)Man(a1-3)][GlcNAc(b1-4)]Man(b1-4)GlcNAc(b1-4)GlcNAc
In short: as §1

[11] = target: Neu5Ac(a2-3)Gal(b1-4)GlcNAc(b1-3)Gal
In short: as §1

[12] = target: Neu5Ac(a2-3)Gal(b1-4)GlcNAc(b1-3)Gal(b1-3)GlcNAc
In short: as §1

[13] = target: Neu5Ac(a2-3)Gal(b1-4)GlcNAc(b1-3)Gal(b1-4)GlcNAc
In short: as §1

[14] = target: Neu5Ac(a2-3)Gal(b1-4)GlcNAc(b1-3)Gal(b1-4)GlcNAc(b1-2)Man(a1-3)[Neu5Ac(a2-3)Gal(b1-4)GlcNAc(b1-3)Gal(b1-4)GlcNAc(b1-2)Man(a1-6)]Man(b1-4)GlcNAc(b1-4)GlcNAc
In short: as §1

[15] = target: Neu5Ac(a2-3)Gal(b1-4)GlcNAc(b1-3)Gal(b1-4)GlcNAc(b1-3)Gal(b1-4)GlcNAc
In short: as §1

[16] = target: Neu5Ac(a2-3)Gal(b1-4)GlcNAc(b1-3)Gal(b1-4)GlcNAc(b1-3)Gal(b1-4)GlcNAc(b1-2)Man(a1-3)[Neu5Ac(a2-3)Gal(b1-4)GlcNAc(b1-3)Gal(b1-4)GlcNAc(b1-3)Gal(b1-4)GlcNAc(b1-2)Man(a1-6)]GalNAc
In short: as §1

[17] = target: Neu5Ac(a2-3)Gal(b1-4)GlcNAc(b1-3)Gal(b1-4)GlcNAc(b1-3)GalNAc
In short: as §1

[18] = target: Neu5Ac(a2-3)Gal(b1-4)GlcNAc(b1-3)Gal(b1-4)GlcNAc(b1-3)[Neu5Ac(a2-3)Gal(b1-4)GlcNAc(b1-3)Gal(b1-4)GlcNAc(b1-6)]GalNAc
In short: as §1

[19] = target: Neu5Ac(a2-3)Gal(b1-4)GlcNAc(b1-3)Gal(b1-4)GlcNAc(b1-6)[Gal(b1-3)]GalNAc
In short: as §1

[20] = target: Neu5Ac(a2-3)Gal(b1-4)GlcNAc(b1-3)Gal(b1-4)[Fuc(a1-3)]GlcNAc
In short: as §1

[21] = target: Neu5Ac(a2-3)Gal(b1-4)GlcNAc(b1-3)GalNAc
In short: as §1

[22] = target: Neu5Ac(a2-3)Gal(b1-4)GlcNAc(b1-3)[Neu5Ac(a2-3)Gal(b1-4)GlcNAc(b1-6)]GalNAc
In short: as §1

[23] = target: Neu5Ac(a2-3)Gal(b1-4)GlcNAc(b1-6)GalNAc
In short: as §1

[24] = target: Neu5Ac(a2-3)Gal(b1-4)GlcNAc(b1-6)[Gal(b1-3)]GalNAc
In short: as §1

[25] = target: Neu5Ac(a2-3)Gal(b1-4)GlcNAc(b1-6)[Neu5Ac(a2-3)Gal(b1-3)]GalNAc
In short: as §1

[26] = target: Neu5Ac(a2-3)Gal(b1-4)GlcNAc6S
In short: as §1

[27] = target: Neu5Ac(a2-3)Gal(b1-4)[Fuc(a1-3)]GlcNAc
In short: as §1

[28] = target: Neu5Ac(a2-3)Gal(b1-4)[Fuc(a1-3)]GlcNAc(b1-2)Man
In short: as §1

[29] = target: Neu5Ac(a2-3)Gal(b1-4)[Fuc(a1-3)]GlcNAc(b1-3)Gal
In short: as §1

[30] = target: Neu5Ac(a2-3)Gal(b1-4)[Fuc(a1-3)]GlcNAc(b1-3)Gal(b1-4)GlcNAc
In short: as §1

[31] = target: Neu5Ac(a2-3)Gal(b1-4)[Fuc(a1-3)]GlcNAc(b1-3)Gal(b1-4)[Fuc(a1-3)]GlcNAc(b1-3)Gal(b1-4)[Fuc(a1-3)]GlcNAc
In short: as §1

[32] = target: Neu5Ac(a2-3)Gal(b1-4)[Fuc(a1-3)]GlcNAc(b1-3)GalNAc
In short: as §1

[33] = target: Neu5Ac(a2-3)Gal(b1-4)[Fuc(a1-3)]GlcNAc(b1-6)[Gal(b1-3)]GalNAc
In short: as §1

[34] = target: Neu5Ac(a2-3)Gal(b1-4)[Fuc(a1-3)]GlcNAc(b1-6)[Neu5Ac(a2-3)Gal(b1-3)]GalNAc
In short: as §1

[35] = target: Neu5Ac(a2-3)Gal(b1-4)[Fuc(a1-3)]GlcNAc6S
In short: as §1

[36] = target: Neu5Ac(a2-3)Gal6S(b1-4)GlcNAc
In short: as §1

[37] = target: Neu5Ac(a2-3)Gal6S(b1-4)[Fuc(a1-3)]GlcNAc
In short: as §1

B1: SspB A3vp1 (Streptococcus gordonii), Q54186 (protein)
chain: MTNEADYQAKLAAYQTELARVQKANADAKATYEKAVEDNKAKNAAIKAENEEIKQRNAVAKTDYEAKLAKYEADLAKYKKEFAAYTAALAEAESKKKQDGYLSEPRSQSLNFKSEPNAIRTIDSSVHQYGQQELDALVKSWGISPTNPDRKKSRAYSYFNAINSNNTYAKLVLEKDKPVDVTYTGLKNSSFNGKKISKVVYTYTLKETGFNDGTKMTMFASSDPTVTAWYNDYFTSTNINVKVKFYDEEGQLMNLTGGLVNFSSLNRGNGSGAIDKDAIESVRNFNGRYIPISGSSIKIHENNSAYADSSNAEKSLGARWNTSEWDTTSSPNNWYGAIVGEITQSEISFNMASSKSGNIWFAFNSNINAIGVPTKPVAPTAPTQPMYETEKPLEPAPVAPSYENEPTPPVKTPDQPEPSKPAAALEHHHHHH
glycan array binding signal (z-score) (Neu5Ac(a2-3)Gal(b1-4)Glc): -0.328 | glycan array binding signal (z-score) [1]: -0.071 | glycan array binding signal (z-score) [2]: 1.88 | glycan array binding signal (z-score) [3]: -0.541 | glycan array binding signal (z-score) [4]: -0.413 | glycan array binding signal (z-score) [5]: -0.415 | glycan array binding signal (z-score) [6]: -0.006 | glycan array binding signal (z-score) [7]: -0.151 | glycan array binding signal (z-score) [8]: -0.366 | glycan array binding signal (z-score) [9]: 1.07 | glycan array binding signal (z-score) [10]: -0.681 | glycan array binding signal (z-score) [11]: -0.803 | glycan array binding signal (z-score) [12]: -0.773 | glycan array binding signal (z-score) [13]: -0.976 | glycan array binding signal (z-score) [14]: 3.69 | glycan array binding signal (z-score) [15]: -0.832 | glycan array binding signal (z-score) [16]: 0.678 | glycan array binding signal (z-score) [17]: -1.13 | glycan array binding signal (z-score) [18]: 0.05 | glycan array binding signal (z-score) [19]: 0.781 | glycan array binding signal (z-score) [20]: -0.251 | glycan array binding signal (z-score) [21]: -0.47 | glycan array binding signal (z-score) [22]: -0.774 | glycan array binding signal (z-score) [23]: -0.654 | glycan array binding signal (z-score) [24]: -0.382 | glycan array binding signal (z-score) [25]: -0.243 | glycan array binding signal (z-score) [26]: -0.678 | glycan array binding signal (z-score) [27]: -0.786 | glycan array binding signal (z-score) [28]: 0.152 | glycan array binding signal (z-score) [29]: -1.03 | glycan array binding signal (z-score) [30]: -0.07 | glycan array binding signal (z-score) [31]: -0.772 | glycan array binding signal (z-score) [32]: 1.61 | glycan array binding signal (z-score) [33]: 2.32 | glycan array binding signal (z-score) [34]: 5.21 | glycan array binding signal (z-score) [35]: -1.33 | glycan array binding signal (z-score) [36]: -0.519 | glycan array binding signal (z-score) [37]: -0.899
